Only a part is listed here, and it is no random draw. At the low end of the ranking, values are background and their order means little.

Sequences of proteins named here, by UniProt entry; tags and fusion partners are left off. A change or cut given only in a name is not applied to a line headed by its entry.
UniProt O43186: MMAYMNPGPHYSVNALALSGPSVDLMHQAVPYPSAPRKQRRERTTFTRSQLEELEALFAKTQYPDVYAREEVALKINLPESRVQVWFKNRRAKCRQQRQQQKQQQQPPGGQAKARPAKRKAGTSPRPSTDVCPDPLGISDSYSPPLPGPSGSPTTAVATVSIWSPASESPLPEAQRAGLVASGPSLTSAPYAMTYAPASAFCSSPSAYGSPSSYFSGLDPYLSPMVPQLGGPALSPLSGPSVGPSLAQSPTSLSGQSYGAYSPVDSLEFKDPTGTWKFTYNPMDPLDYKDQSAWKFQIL

One assay has as its target T1, FEV (UniProt Q99581).
T1 sequence: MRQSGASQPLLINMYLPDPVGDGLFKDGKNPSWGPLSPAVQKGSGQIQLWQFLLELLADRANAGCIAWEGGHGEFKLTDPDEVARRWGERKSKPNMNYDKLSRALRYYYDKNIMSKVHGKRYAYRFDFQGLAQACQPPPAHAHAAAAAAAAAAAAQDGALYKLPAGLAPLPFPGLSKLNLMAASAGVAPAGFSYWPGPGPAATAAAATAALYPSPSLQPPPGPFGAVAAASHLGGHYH
As to the kind of experiment: DAPPL (digital affinity profiling via proximity ligation, sequencing). As to conditions: 10 mM Tris-HCl pH 7.5, 50 mM NaCl, 1 mM DTT, 4% glycerol, room temperature, 30 min; GST-TFs on glutathione beads, 16-mer random dsDNA library, 0.1% …; high values mean tight binding; double strand, one strand shown; scale: fold enrichment (6-mer frequency, TF over GST control).
Sequence AAAGAG showed a binding signal of 0.866.
Consider GACACA, for which the binding signal worked out at 0.862.
Same read-out and setting: the same measure for ACCATG: 0.827; for GTCGAT: 0.63; for ATGTGA: 0.663.
The same measure, in the same setting: the same measure for CAGTCA: 0.478; for GTCGTA: 0.588; for AGCGGA: 0.89.
Sequence GTTCGG showed a binding signal of 0.636.
On the same count and under the same terms, for CCGCGA the value was 0.691.
On the same count and under the same terms, the same measure for GCGCAT: 0.836.
GCAGTA came in with a binding signal of 0.904.
On the same count and under the same terms, the same measure for GTCAAC: 0.864.
The same measure, in the same setting: for ATTGGA the value was 0.907.
Take CACGTC: the binding signal came to 0.87.
The sequence GTCAAG gave a binding signal of 0.748.
Same read-out and setting: for AGAAAG the value was 0.836; for GATCGT, 0.425.
The sequence GCGTAG came in with a binding signal of 0.735.
Regarding CCAGGA, the binding signal turned out to be 0.61.
With ACCAGA, the binding signal was found to be 0.887.
Consider GAGACT, for which the binding signal turned out to be 0.4.
As for CCAGGG, the binding signal was 0.649.
Still for that read-out and setting: for CTCGGA the value was 0.822.
For the sequence GGGCGG, the binding signal was 0.455.
GAGCCA came in with a binding signal of 0.595.
The same measure, in the same setting: for CGTGTT the value was 0.795; for GAGTAA, 0.524; for AGGCAG, 0.591.
The sequence GGTCCG yielded a binding signal of 0.831.
Still for that read-out and setting: for CGCATT the value was 0.742; for GTTAGG, 0.761; for GGAGCG, 0.359.
On the same count and under the same terms, for AGTCGG the value was 0.148.
On the same count and under the same terms, for CAGACA the value was 0.799; for GTAGAC, 0.807.
TCGGCA displayed a binding signal of 0.681.
The same measure, in the same setting: the same measure for ACGGAG: 0.338; for GTGGGA: 0.614.

For another assay, the target named is CRX (UniProt O43186). Described as above. As to conditions: 10 mM Tris-HCl pH 7.5, 50 mM NaCl, 1 mM DTT, 4% glycerol, room temperature, 30 min; GST-TFs on glutathione beads, 16-mer random dsDNA library, 0.1% …; high values mean tight binding; double strand, one strand shown; scale: fold enrichment (6-mer frequency, TF over GST control).
In turn, AAAGAG showed a binding signal of 0.944.
Sequence GACACA had a binding signal of 0.627.
Same read-out and setting: the same measure for ACCATG: 0.652; for GTCGAT: 0.628.
Still for that read-out and setting: for ATGTGA the value was 0.588.
On the same count and under the same terms, the same measure for CAGTCA: 0.39.
Sequence GTCGTA gave a binding signal of 0.497.
AGCGGA returned a binding signal of 0.57.
Consider GTTCGG, for which the binding signal came to 0.508.
For the sequence CCGCGA, the binding signal was determined as 0.59.
For the sequence GCGCAT, the binding signal stood at 0.84.
GCAGTA came in with a binding signal of 0.787.
GTCAAC yielded a binding signal of 0.608.
Sequence ATTGGA returned a binding signal of 1.03.
The same measure, in the same setting: for CACGTC the value was 0.628.
GTCAAG gave a binding signal of 0.64.
Still for that read-out and setting: for AGAAAG the value was 1.01; for GATCGT, 0.424; for GCGTAG, 0.628.
CCAGGA displayed a binding signal of 0.448.
With ACCAGA, the binding signal was 1.06.
Same read-out and setting: for GAGACT the value was 0.441; for CCAGGG, 0.541.
On to CTCGGA, for which the binding signal was 0.787.
Regarding GGGCGG, the binding signal amounted to 0.276.
On the same count and under the same terms, the same measure for GAGCCA: 0.465; for CGTGTT: 0.651; for GAGTAA: 0.622.
AGGCAG gave a binding signal of 0.451.
The same measure, in the same setting: for GGTCCG the value was 0.506; for CGCATT, 0.906.
On the same count and under the same terms, the same measure for GTTAGG: 0.774; for GGAGCG: 0.298.
Same read-out and setting: the same measure for AGTCGG: 0.134.
With CAGACA, the binding signal is 0.648.
Still for that read-out and setting: for GTAGAC the value was 0.56; for TCGGCA, 0.632; for ACGGAG, 0.302.
GTGGGA yielded a binding signal of 0.534.

The next assay addresses T2, ELF5 (UniProt Q9UKW6-2).
T2 sequence: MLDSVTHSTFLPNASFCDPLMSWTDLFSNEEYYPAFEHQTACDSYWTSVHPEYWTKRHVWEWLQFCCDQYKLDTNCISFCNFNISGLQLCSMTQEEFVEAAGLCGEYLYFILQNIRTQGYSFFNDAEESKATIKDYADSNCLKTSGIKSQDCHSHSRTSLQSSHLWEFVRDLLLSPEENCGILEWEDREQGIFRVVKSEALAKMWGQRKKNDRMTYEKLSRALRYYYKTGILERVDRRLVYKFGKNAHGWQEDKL
Described as above. As to conditions: 10 mM Tris-HCl pH 7.5, 50 mM NaCl, 1 mM DTT, 4% glycerol, room temperature, 30 min; GST-TFs on glutathione beads, 16-mer random dsDNA library, 0.1% …; high values mean tight binding; double strand, one strand shown; scale: fold enrichment (6-mer frequency, TF over GST control).
In the case of AAAGAG, the binding signal turned out to be 0.856.
On the same count and under the same terms, the same measure for GACACA: 0.937.
On the same count and under the same terms, the same measure for ACCATG: 0.801; for GTCGAT: 0.655.
The same measure, in the same setting: for ATGTGA the value was 0.644; for CAGTCA, 0.505.
The sequence GTCGTA returned a binding signal of 0.635.
In the case of AGCGGA, the binding signal came out at 0.861.
The same measure, in the same setting: the same measure for GTTCGG: 0.631; for CCGCGA: 0.695; for GCGCAT: 0.83.
Still for that read-out and setting: for GCAGTA the value was 0.847; for GTCAAC, 0.848; for ATTGGA, 0.868.
In the case of CACGTC, the binding signal is 0.84.
On the same count and under the same terms, for GTCAAG the value was 0.779.
On the same count and under the same terms, for AGAAAG the value was 0.817; for GATCGT, 0.391.
GCGTAG came in with a binding signal of 0.79.
Consider CCAGGA, for which the binding signal came out at 0.868.
ACCAGA yielded a binding signal of 0.878.
With GAGACT, the binding signal was 0.386.
Turning to CCAGGG, the binding signal turned out to be 0.593.
On the same count and under the same terms, for CTCGGA the value was 0.785; for GGGCGG, 0.41; for GAGCCA, 0.577.
Same read-out and setting: the same measure for CGTGTT: 0.868; for GAGTAA: 0.548; for AGGCAG: 0.52.
Sequence GGTCCG yielded a binding signal of 0.747.
For the sequence CGCATT, the binding signal is 0.774.
The sequence GTTAGG showed a binding signal of 0.805.
The same measure, in the same setting: for GGAGCG the value was 0.373; for AGTCGG, 0.148.
With CAGACA, the binding signal worked out at 0.815.
Regarding GTAGAC, the binding signal was 0.755.
The sequence TCGGCA yielded a binding signal of 0.714.
On the same count and under the same terms, for ACGGAG the value was 0.354; for GTGGGA, 0.608.

The record behind these values is PMC7862700.
